PubChem BioAssay AID504808, Drosophila RNAi Screening Center | 2011

Purpose: 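Genes whose loss lifts activity of an E2F-responsive reporter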 (primary screen)
Cell system: Drosophila S2 cells
Reagents: long dsRNA against Drosophila genes
Measured: 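Firefly luciferase driven by E2F sites, normalised to Renilla luciferase on the same minimal promoter, measured by plate reader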
Reading the numbers: E2F firefly: higher = more E2F reporter activity; Renilla normaliser: higher = more normaliser reporter signal
Active means: 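a knock-down counted as active when the firefly/Renilla E2F signal rose above 50%, a threshold chosen arbitrarily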
The deposit covers about 21,000 reagents; shown is an unselected part of those that have a named target and a result. Of all reagents, 18 (0.084%) were called active. 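Raw counts without plate normalisation, one of two replicates; the ratio scores behind the calls were not deposited.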 Reagent sequences are not shown. The record does not give: the amount of reagent, the time to read-out.

| gene | amplicon | E2F firefly, rep 1 | Renilla normaliser, rep 1 | call |
| --- | --- | --- | --- | --- |
| Tsp42Er (Tetraspanin 42Er) | DRSC06183 | 1.55e5 | 5662 | inactive |
| CG33310 | DRSC01897 | 1.04e5 | 4656 | inactive |
| lms (lateral muscles scarcer) | DRSC06387 | 98495 | 4271 | inactive |
| mthl2 (methuselah-like 2) | DRSC10287 | 84482 | 4071 | inactive |
| CG32091 | DRSC10141 | 1.25e5 | 7773 | inactive |
| CG32091 | DRSC10820 | 1.22e5 | 6878 | inactive |
| zye | DRSC11784 | 1.50e5 | 7258 | inactive |
| Bruce (BIR repeat containing ubiquitin-conjugating enzyme) | DRSC16015 | 1.60e5 | 5577 | inactive |
| Phb2 (Prohibitin 2) | DRSC06512 | 50226 | 3082 | inactive |
| Nubp2 (NUBP iron-sulfur cluster assembly factor 2) | DRSC11758 | 1.29e5 | 6195 | inactive |
| CG14230 | DRSC19586 | 1.59e5 | 5582 | inactive |
| CG10492 | DRSC02064 | 72530 | 3278 | inactive |
| shop (shopper) | DRSC20030 | 1.31e5 | 5186 | inactive |
| Hecw (Hecw ubiquitin protein ligase) | DRSC18261 | 1.37e5 | 5613 | inactive |
| Hecw (Hecw ubiquitin protein ligase) | DRSC18276 | 1.32e5 | 4971 | inactive |
| ppk11 (pickpocket 11) | DRSC02737 | 1.45e5 | 4815 | inactive |
| pn (prune) | DRSC18822 | 1726 | 932 | inactive |
| Det (Deterin) | DRSC14489 | 1.24e5 | 6902 | inactive |
| CG2063 | DRSC06811 | 1.71e5 | 5559 | inactive |
| Nop56 | DRSC14699 | 70635 | 3711 | inactive |
| Ser6 (Serine protease 6) | DRSC20574 | 1.36e5 | 7083 | inactive |
| CG10140 | DRSC09704 | 1.27e5 | 6458 | inactive |
| Pgant8 (Polypeptide N-Acetylgalactosaminyltransferase 8) | DRSC10801 | 1.56e5 | 7843 | inactive |
| CG6380 | DRSC02950 | 94290 | 4571 | inactive |
| CG15594 | DRSC12280 | 1.40e5 | 6303 | inactive |
| Ugt37D1 (UDP-glycosyltransferase family 37 member D1) | DRSC02645 | 99716 | 4284 | inactive |
| knrl (knirps-like) | DRSC11892 | 69152 | 3143 | inactive |
| CG4960 | DRSC15684 | 1.03e5 | 5975 | inactive |
| CG34242 | DRSC09185 | 1.36e5 | 4622 | inactive |
| CG6204 | DRSC15991 | 77870 | 3425 | inactive |
| MCU (Mitochondrial calcium uniporter) | DRSC10339 | 1.03e5 | 4093 | inactive |
| PPO3 (Prophenoloxidase 3) | DRSC04325 | 85105 | 3729 | inactive |
| obst-E (obstructor-E) | DRSC02128 | 94353 | 4256 | inactive |
| srw (shrew) | DRSC08201 | 96293 | 4265 | inactive |
| CG9853 | DRSC12343 | 73410 | 3603 | inactive |
| GILT2 (Gamma-interferon-inducible lysosomal thiol reductase 2) | DRSC14196 | 75111 | 3675 | inactive |
| Gnpat (Glyceronephosphate O-acyltransferase) | DRSC16960 | 1.03e5 | 5445 | inactive |
| RhoGAP100F (Rho GTPase activating protein at 100F) | DRSC15409 | 1772 | 932 | inactive |
| ed (echinoid) | DRSC00350 | 91982 | 4052 | inactive |
| ed (echinoid) | DRSC00438 | 1.40e5 | 5496 | inactive |
| ed (echinoid) | DRSC00439 | 1.53e5 | 4577 | inactive |
| ed (echinoid) | DRSC00478 | 1.48e5 | 4964 | inactive |
| Usp10 (Ubiquitin specific protease 10) | DRSC08282 | 74632 | 3182 | inactive |
| Usp10 (Ubiquitin specific protease 10) | DRSC08373 | 75035 | 3626 | inactive |
| eya (eyes absent) | DRSC03510 | 82856 | 3649 | inactive |
| CG15020 | DRSC08474 | 92765 | 3432 | inactive |
| Obp83ef (Odorant-binding protein 83ef) | DRSC12268 | 1.29e5 | 6634 | inactive |
| ALiX (ALG-2 interacting protein X) | DRSC14564 | 1838 | 980 | inactive |
| Or83c (Odorant receptor 83c) | DRSC12359 | 1.24e5 | 6450 | inactive |

Ordered by “Renilla normaliser, rep 1” (highest first): some entries from above
| gene | amplicon | E2F firefly, rep 1 | Renilla normaliser, rep 1 | call |
| --- | --- | --- | --- | --- |
| CG32091 | DRSC10141 | 1.25e5 | 7773 | inactive |
| zye | DRSC11784 | 1.50e5 | 7258 | inactive |
| CG32091 | DRSC10820 | 1.22e5 | 6878 | inactive |
| Nubp2 (NUBP iron-sulfur cluster assembly factor 2) | DRSC11758 | 1.29e5 | 6195 | inactive |
| CG14230 | DRSC19586 | 1.59e5 | 5582 | inactive |
| Bruce (BIR repeat containing ubiquitin-conjugating enzyme) | DRSC16015 | 1.60e5 | 5577 | inactive |
| shop (shopper) | DRSC20030 | 1.31e5 | 5186 | inactive |
| CG10492 | DRSC02064 | 72530 | 3278 | inactive |
| Phb2 (Prohibitin 2) | DRSC06512 | 50226 | 3082 | inactive |

Further entries follow:
| gene | amplicon | E2F firefly, rep 1 | Renilla normaliser, rep 1 | call |
| --- | --- | --- | --- | --- |
| TRAM | DRSC18178 | 62758 | 4155 | inactive |
| TRAM | DRSC18651 | 1.21e5 | 5363 | inactive |
| Cyp4e3 (Cytochrome P450 4e3) | DRSC03306 | 1.31e5 | 4912 | inactive |
| eIF5 (eukaryotic translation initiation factor 5) | DRSC20165 | 7823 | 776 | inactive |
| upSET | DRSC11051 | 63024 | 3264 | inactive |
| Tango2 (Transport and Golgi organization 2) | DRSC19394 | 8011 | 780 | inactive |
| CG13204 | DRSC06328 | 92596 | 4144 | inactive |
| MESR6 (Misexpression suppressor of ras 6) | DRSC10720 | 73145 | 3519 | inactive |
| BCAS2 | DRSC15693 | 1711 | 1068 | inactive |
| CG8562 | DRSC10995 | 95601 | 4717 | inactive |
| CG14893 | DRSC15015 | 1.07e5 | 5386 | inactive |
| tub (tube) | DRSC12389 | 73437 | 3585 | inactive |
| NELF-B | DRSC17734 | 10771 | 732 | inactive |
| CG14053 | DRSC17908 | 1.19e5 | 6371 | inactive |
| Chro (Chromator) | DRSC11630 | 88855 | 2942 | inactive |
| GNBP2 (Gram-negative bacteria binding protein 2) | DRSC10404 | 78596 | 3349 | inactive |
| CG4896 | DRSC00671 | 82735 | 3638 | inactive |
| mip40 (Myb-interacting protein 40) | DRSC06541 | 67731 | 3176 | inactive |
| comm (commissureless) | DRSC11336 | 1.88e5 | 7570 | inactive |
| CG14431 | DRSC17925 | 91121 | 5428 | inactive |
| aft (adrift) | DRSC07576 | 69695 | 3230 | inactive |
| CG31493 | DRSC12583 | 73944 | 3950 | inactive |
| Spn42Dc (Serpin 42Dc) | DRSC05010 | 1.40e5 | 4858 | inactive |
| Hsc70-4 (Heat shock protein 70 cognate 4) | DRSC16711 | 54400 | 6571 | inactive |
| chn (charlatan) | DRSC06086 | 2992 | 204 | inactive |
| CG8087 | DRSC16375 | 1.35e5 | 5860 | inactive |
| Ric (Ras-related protein interacting with calmodulin) | DRSC07532 | 1.50e5 | 4860 | inactive |
| ste24a (prenyl protease type I) | DRSC07314 | 73288 | 2949 | inactive |
| abd-A (abdominal A) | DRSC13179 | 72124 | 2557 | inactive |
| abd-A (abdominal A) | DRSC16897 | 46108 | 3670 | inactive |
| CG40191 | DRSC21041 | 66725 | 4957 | inactive |
| CG15445 | DRSC20517 | 1.41e5 | 5515 | inactive |
| CG12104 | DRSC08254 | 71054 | 3347 | inactive |
| CG3168 | DRSC18287 | 7176 | 796 | inactive |
| Impbeta11 (Importin beta11) | DRSC07525 | 1.05e5 | 4223 | inactive |
